Record: PubChem BioAssay AID1508597 (Cure First, 2020)
This is a random part of the about 2,100 reagents, in one setting of the screen. 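Calls flag viability under 80% in either arm, not effects specific to rucaparib; the reference for percent is not stated.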 A reagent listed more than once was tested more than once; the source does not tell the runs apart. No sequences are given here. Not stated in the record: the 100% reference.

Aim: 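Knock-downs altering ovarian cancer cell survival with or without PARP inhibitor rucaparib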 (primary screen)
System: human ovarian carcinoma lines grown from tumours: OCI-P5x (papillary serous) and OCI-C5x (clear cell)
Knock-down reagent: siRNA pool against human genes, 1.25 pmol siRNA per well
Time to read-out: 72 h or 96 h, depending on the cell culture
Challenge: rucaparib 20 µM (about IC30) or vehicle, present until read-out
Rucaparib or vehicle: Rucaparib
Cell line: OCI-P5x (serous)
Measurement: 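ATP luminescence measured at 72 or 96 h according to the culture, then normalised and expressed as percent viability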
Scale: viability, normalised: higher = more viable cells remaining
Active means: 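a well counts as a hit if its normalised viability is under 80 percent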
Meaning of the calls: active = viability under 80%; inactive = viability 80% or more

no.	target	technical replicate	viability, normalised (%)	Outcome
1	UBE2B (ubiquitin conjugating enzyme E2 B)	1	66	active
2	UBE2B (ubiquitin conjugating enzyme E2 B)	1	61.9	active
3	UBE2B (ubiquitin conjugating enzyme E2 B)	2	78.1	active
4	UBE2B (ubiquitin conjugating enzyme E2 B)	2	51.7	active
5	UBE2B (ubiquitin conjugating enzyme E2 B)	3	83.3	inactive
6	UBE2B (ubiquitin conjugating enzyme E2 B)	3	65.1	active
7	SOX6 (SRY-box transcription factor 6)	1	45.1	active
8	SOX6 (SRY-box transcription factor 6)	2	39.8	active
9	SOX6 (SRY-box transcription factor 6)	3	31.3	active
10	CBX1 (chromobox 1)	1	80.2	inactive
11	CBX1 (chromobox 1)	2	82.9	inactive
12	CBX1 (chromobox 1)	3	97	inactive
13	SUV39H2 (SUV39H2 histone lysine methyltransferase)	1	60.3	active
14	SUV39H2 (SUV39H2 histone lysine methyltransferase)	2	51.3	active
15	SUV39H2 (SUV39H2 histone lysine methyltransferase)	3	47.2	active
16	SKP1 (S-phase kinase associated protein 1)	1	93.3	inactive
17	SKP1 (S-phase kinase associated protein 1)	2	119	inactive
18	SKP1 (S-phase kinase associated protein 1)	3	92	inactive
19	NLK (nemo like kinase)	1	76.1	active
20	NLK (nemo like kinase)	2	84.2	inactive
21	NLK (nemo like kinase)	3	88.2	inactive
22	DHFR (dihydrofolate reductase)	1	75.7	active
23	DHFR (dihydrofolate reductase)	2	106	inactive
24	DHFR (dihydrofolate reductase)	3	90.1	inactive
25	ITPKC (inositol-trisphosphate 3-kinase C)	1	73.6	active
26	ITPKC (inositol-trisphosphate 3-kinase C)	2	84.7	inactive
27	ITPKC (inositol-trisphosphate 3-kinase C)	3	86.7	inactive
28	ZAR1 (zygote arrest 1)	1	96.3	inactive
29	ZAR1 (zygote arrest 1)	2	90	inactive
30	ZAR1 (zygote arrest 1)	3	82.3	inactive
31	ZNF384 (zinc finger protein 384)	1	67.6	active
32	ZNF384 (zinc finger protein 384)	2	61.8	active
33	ZNF384 (zinc finger protein 384)	3	70.9	active
34	ACTG1 (actin gamma 1)	1	69.5	active
35	ACTG1 (actin gamma 1)	2	69.3	active
36	ACTG1 (actin gamma 1)	3	64.6	active
37	HDGFL3 (HDGF like 3)	1	47.8	active
38	HDGFL3 (HDGF like 3)	2	58.7	active
39	HDGFL3 (HDGF like 3)	3	60.7	active
40	ZMYND11 (zinc finger MYND-type containing 11)	1	59.4	active
41	ZMYND11 (zinc finger MYND-type containing 11)	2	47.6	active
42	ZMYND11 (zinc finger MYND-type containing 11)	3	54.9	active
43	MAPK8 (mitogen-activated protein kinase 8)	1	112	inactive
44	MAPK8 (mitogen-activated protein kinase 8)	2	120	inactive
45	MAPK8 (mitogen-activated protein kinase 8)	3	125	inactive
46	CLK4 (CDC like kinase 4)	1	90	inactive
47	CLK4 (CDC like kinase 4)	2	95.8	inactive
48	CLK4 (CDC like kinase 4)	3	83.8	inactive
49	PRKCH (protein kinase C eta)	1	119	inactive
50	PRKCH (protein kinase C eta)	2	109	inactive
51	PRKCH (protein kinase C eta)	3	108	inactive
52	ELP4 (elongator acetyltransferase complex subunit 4)	1	65.6	active
53	ELP4 (elongator acetyltransferase complex subunit 4)	2	73.8	active
54	ELP4 (elongator acetyltransferase complex subunit 4)	3	83.6	inactive
55	FBXL19 (F-box and leucine rich repeat protein 19)	1	74.6	active
56	FBXL19 (F-box and leucine rich repeat protein 19)	2	63.5	active
57	FBXL19 (F-box and leucine rich repeat protein 19)	3	72.9	active

Copied from the list:
Value for CLK4 (CDC like kinase 4), technical replicate 3 in “viability, normalised (%)”: 83.8
Result of ZNF384 (zinc finger protein 384), technical replicate 2 under “Outcome”: active
SKP1 (S-phase kinase associated protein 1), technical replicate 3, Outcome = inactive
